These results are taken from patent US8148371B2, “Adenine compound and use thereof” (Dainippon Sumitomo Pharma Co., Ltd., priority 2002, dated 2012).

A short description of series [1]: Metabolic stability on liver S9 of rat. Particulars: rat liver S9, test compound 1 μM, 37° C.
In another series the test system is plasma esterase. The conditions noted are these: rat plasma, test compound 10 μM, 37° C., 15 minutes.

`CCCCOc1nc(N)c2[nH]c(=O)n(Cc3cccc(CC(=O)OC)c3)c2n1` [Example 19, 2-Butoxy-8-hydroxy-9-(3-methoxycarbonylmethylbenzyl)adenine]: the Residual rate came to 0% in series [1] and 1% with plasma esterase.
